# From PubChem BioAssay AID1487 (National Center for Advancing Translational Sciences (NCATS), 2009)
# The other results are listed elsewhere or left out. The main result of the screen is listed elsewhere. These columns were measured beside it and carry no call. The list favours compounds with an active or inconclusive main result. The note in brackets gives the kind of curve behind each potency; many fits are weak.
# Experiment: qHTS Assay for Modulators of Lamin A Splicing
# Settings: HeLa LMNA splicing GFP/RFP minigene ratio, 48 h
# Outline: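 Read-out is the ratio of GFP to DsRed2 object intensity, acquired by 488 nm laser-scanning cytometry on HeLa lamin A-EGFP minigene reporter cells. Compound incubation 48 hrs at 37 °C in Opti-MEM with 2% FBS; DMSO 0.5% final.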
# [1] = measured here: GFP splicing reporter channel
# [2] = measured here: RFP viability control channel
SMILES,AC50 [1],AC50 [2]
S=C1NC2=C(CCC/C2=C\c2ccccc2)C(c2ccccc2)N1 (configuration not stated),"15.8 µM [rising, single point]",
O=C(Nc1ccc(Cl)c(Cl)c1)N1CCSC1c1ccco1 (configuration not stated),"0.316 µM [rising, full curve, poor fit]","25.1 µM [rising, single point]"
CCOc1ccccc1OCCOCCOc1ccccc1[N+](=O)[O-],"11.2 µM [rising, partial curve]","20 µM [rising, partial curve, poor fit]"
CS(=O)(=O)N(CC(O)Cn1c2ccccc2c2ccccc21)c1ccccc1 (configuration not stated),,"8.91 µM [rising, single point]"
N#C/C(=C\C1CC=CCC1)c1nc2ccccc2[nH]1 (configuration not stated),"0.708 µM [falling, single point]",
COc1cc(Nc2nc(SCC(=O)c3ccc(Br)cc3)nc3ccccc23)cc(OC)c1,,"5.01 µM [falling, partial curve]"
Cc1ccc(C(=O)/C=C/c2ccccc2[N+](=O)[O-])cc1,"35.5 µM [falling, single point]",
Cc1cccc(NC(=S)N/N=C2\CC(C)(C)Oc3ccc(O)cc32)c1,"12.6 µM [rising, single point]","12.6 µM [rising, partial curve]"
Cc1ccc(NC(=O)C2C(c3ccccc3)C2(Cl)Cl)c(C)c1 (configuration not stated),,"14.1 µM [rising, single point]"
CCCCCCn1c(NCC)nc2c1c(=O)n(C)c(=O)n2C,,"2.51 µM [rising, full curve]"
CC(Oc1ccccc1)C(=O)NNS(=O)(=O)c1ccc([N+](=O)[O-])cc1 (configuration not stated),,"3.98 µM [falling, full curve, poor fit]"
CSc1ccc(S(=O)(=O)N(C)Cc2ccccc2)cc1,,"1 µM [rising, full curve, poor fit]"
CCOc1ccc(-n2cc(-c3ccccc3)c3c(N4CCOCC4)ncnc32)cc1,"11.2 µM [falling, partial curve]","31.6 µM [falling, single point]"
COc1ccc(NC(=O)N(Cc2cc3cc(OC)c(OC)cc3[nH]c2=O)CC2CCCO2)cc1 (configuration not stated),"3.98 µM [falling, full curve, poor fit]",
CN(C)C1=NCC(CSC(=N)N)S1 (configuration not stated),,"31.6 µM [rising, single point]"
Cc1c(C(=O)NCc2cccc(Cl)c2)sc2ncnc(N(C)C3CCCCC3)c12,,"0.0158 µM [rising, full curve, poor fit]"
Cc1ccc(SCc2nc(-c3cccnc3)no2)cc1,"17.8 µM [falling, partial curve]","20 µM [falling, partial curve]"
O=C(N/N=C/c1cn(-c2cccs2)nc1-c1ccccc1)c1ccccc1O,"5.62 µM [rising, partial curve]","10 µM [rising, partial curve]"
C=C(C(=O)c1ccccc1)C(c1ccccc1)C(C)C(=O)c1ccccc1 (configuration not stated),"35.5 µM [falling, single point]","35.5 µM [falling, single point]"
O=C(Cn1c(=O)nc(-c2ccccc2)c2ccccc21)Nc1cccc(C(F)(F)F)c1,"35.5 µM [falling, single point]","35.5 µM [falling, partial curve, poor fit]"
Cc1ccc(N2CCN(/N=C/c3sccc3C)CC2)cc1,,"25.1 µM [rising, single point]"
O=C(O)c1ccc(CNC(=S)Nc2ccccc2)cc1,"0.00631 µM [rising, full curve, poor fit]",
COc1ccccc1Oc1ccc2c(c1)C(=O)N(c1ccc(Br)c3cccnc13)C2=O,"10 µM [rising, partial curve]","17.8 µM [rising, single point]"
COc1ccc(NC(=O)c2oc3ccc(S(=O)(=O)N4CCCCC4)cc3c2C)cc1,,"0.141 µM [falling, full curve, poor fit]"
CCc1ccc(-n2nc(C)c3c(C)cc(=O)n(Cc4nc(-c5ccccc5)oc4C)c32)cc1,,"0.562 µM [rising, partial curve, poor fit]"
C=CC(=O)O,"0.708 µM [falling, full curve, poor fit]","35.5 µM [falling, single point]"
COc1ccc(-n2nnc3c(=O)n(Cc4cc(C)ccc4C)cnc32)cc1,"0.0112 µM [falling, full curve, poor fit]",
COc1ccccc1N1CCN(C(=O)c2cc(-c3ccc4c(c3)OCO4)on2)CC1,"5.01 µM [rising, full curve]","5.01 µM [rising, partial curve, poor fit]"

# Part of the list above, with bars between the fields.
SMILES | AC50 [1] | AC50 [2]
S=C1NC2=C(CCC/C2=C\c2ccccc2)C(c2ccccc2)N1 (configuration not stated) | 15.8 µM [rising, single point] | 
O=C(Nc1ccc(Cl)c(Cl)c1)N1CCSC1c1ccco1 (configuration not stated) | 0.316 µM [rising, full curve, poor fit] | 25.1 µM [rising, single point]
CS(=O)(=O)N(CC(O)Cn1c2ccccc2c2ccccc21)c1ccccc1 (configuration not stated) |  | 8.91 µM [rising, single point]
N#C/C(=C\C1CC=CCC1)c1nc2ccccc2[nH]1 (configuration not stated) | 0.708 µM [falling, single point] | 
Cc1cccc(NC(=S)N/N=C2\CC(C)(C)Oc3ccc(O)cc32)c1 | 12.6 µM [rising, single point] | 12.6 µM [rising, partial curve]
Cc1ccc(NC(=O)C2C(c3ccccc3)C2(Cl)Cl)c(C)c1 (configuration not stated) |  | 14.1 µM [rising, single point]
CCCCCCn1c(NCC)nc2c1c(=O)n(C)c(=O)n2C |  | 2.51 µM [rising, full curve]
CC(Oc1ccccc1)C(=O)NNS(=O)(=O)c1ccc([N+](=O)[O-])cc1 (configuration not stated) |  | 3.98 µM [falling, full curve, poor fit]
CCOc1ccc(-n2cc(-c3ccccc3)c3c(N4CCOCC4)ncnc32)cc1 | 11.2 µM [falling, partial curve] | 31.6 µM [falling, single point]
COc1ccc(NC(=O)N(Cc2cc3cc(OC)c(OC)cc3[nH]c2=O)CC2CCCO2)cc1 (configuration not stated) | 3.98 µM [falling, full curve, poor fit] | 
CN(C)C1=NCC(CSC(=N)N)S1 (configuration not stated) |  | 31.6 µM [rising, single point]
Cc1ccc(SCc2nc(-c3cccnc3)no2)cc1 | 17.8 µM [falling, partial curve] | 20 µM [falling, partial curve]
O=C(Cn1c(=O)nc(-c2ccccc2)c2ccccc21)Nc1cccc(C(F)(F)F)c1 | 35.5 µM [falling, single point] | 35.5 µM [falling, partial curve, poor fit]
CCc1ccc(-n2nc(C)c3c(C)cc(=O)n(Cc4nc(-c5ccccc5)oc4C)c32)cc1 |  | 0.562 µM [rising, partial curve, poor fit]
C=CC(=O)O | 0.708 µM [falling, full curve, poor fit] | 35.5 µM [falling, single point]
COc1ccccc1N1CCN(C(=O)c2cc(-c3ccc4c(c3)OCO4)on2)CC1 | 5.01 µM [rising, full curve] | 5.01 µM [rising, partial curve, poor fit]

# Next part

SMILES,AC50 [1],AC50 [2]
CCN1CCN(CC(=O)Nc2c(C(=O)OC)[nH]c3cccc(Cl)c23)CC1,,"4.47 µM [falling, partial curve]"
CN(Cc1ccccc1)S(=O)(=O)c1nnc(NC(=O)c2cccc(Cl)c2)s1,"35.5 µM [falling, single point]","35.5 µM [falling, partial curve, poor fit]"
CCN(CC)C(=O)CCC(=O)Nc1ccc(C(=O)OC)cc1,,"3.55 µM [rising, single point]"
O=C(/C=C/c1ccccc1)NC(=S)NNC(=O)c1cccnc1,,"35.5 µM [falling, partial curve]"
Cc1nc(N2CCN(C(=O)c3ccco3)CC2)c2c3c(sc2n1)CC(C)CC3 (configuration not stated),,"5.01 µM [falling, partial curve, poor fit]"
Cc1cccc(NC(=O)CSc2nccn2Cc2ccc(F)cc2)c1C,"0.158 µM [rising, full curve, poor fit]",
Cc1c(/C=N\NC(=O)C2COc3ccccc3O2)c2ccccc2n1C (configuration not stated),,"0.794 µM [rising, full curve, poor fit]"
Cc1cc(-c2nnc(CCC(=O)N3CCN(Cc4cccc(F)c4)CC3)o2)c(C)o1,,"35.5 µM [falling, partial curve, poor fit]"
COc1ccc(S(=O)(=O)N2CCOC2CNC(=O)C(=O)NCCCn2ccnc2)cc1OC (configuration not stated),"0.251 µM [falling, full curve, poor fit]","0.316 µM [falling, partial curve]"
CCOc1ccccc1CNC(=O)c1cc2oc3ccccc3c2n1C,,"10 µM [rising, partial curve]"
CCC(NC(=O)c1ccccc1O)c1ccccc1 (configuration not stated),"22.4 µM [rising, single point]","22.4 µM [rising, single point]"
N.N.O=C(O)C1(C(=O)O)CCC1.[Pt],"0.00562 µM [falling, full curve, poor fit]","35.5 µM [falling, single point]"
COc1ccccc1N1CCN(C(=O)c2cccc3c(=O)c(C)c(-c4ccccc4)oc23)CC1,,"0.2 µM [rising, full curve, poor fit]"
CCOC(=O)N(C)c1ccc(C(O)(C(F)(F)F)C(F)(F)F)cc1,"10 µM [rising, partial curve]","4.47 µM [rising, partial curve, poor fit]"
CCOC(=O)/C=C/C(=O)Nc1ccc(S(=O)(=O)Nc2c(C)cc(C)cc2C)cc1,,"35.5 µM [rising, single point]"
Cc1ccccc1OCc1ccc(-c2nc(C#N)c(NCc3cccnc3)o2)o1,,"12.6 µM [rising, single point]"
CC1=C(c2ccc(C)c(C)c2)S(=O)(=O)N=C1N1CCC(C(=O)N2CCC(C)CC2)CC1,"0.112 µM [rising, full curve, poor fit]","0.01 µM [rising, full curve]"
CC1CCCCN1C(=O)c1cc2nc(-c3ccccc3)cc(-c3ccccc3)n2n1 (configuration not stated),,"22.4 µM [rising, single point]"
CCOC(=O)c1c(C)[nH]c(C(=O)CSc2nc(C)cc(C)n2)c1C,"31.6 µM [rising, single point]","31.6 µM [rising, single point]"
Cc1cc(-c2csc(NC(=O)c3ccc(C#N)cc3)n2)c(C)n1Cc1ccccc1,"14.1 µM [rising, single point]","12.6 µM [rising, partial curve]"
CN(C)C(=O)c1ccc(COc2ccccc2Br)o1,,"35.5 µM [rising, single point]"
O=C(/C=C/c1ccc(F)cc1)c1ccccc1Br,"20 µM [falling, single point]","35.5 µM [falling, single point]"
Cc1cc(NS(=O)(=O)c2ccc(NC(=O)c3cc4ccccc4o3)cc2)no1,,"0.126 µM [falling, full curve, poor fit]"
Cc1cccc(NC(=O)C2c3ccccc3Oc3ccccc32)n1,"25.1 µM [falling, single point]",
CC(C)(C=O)C1=CC(=O)c2ccccc2C1=O,,"17.8 µM [rising, single point]"
CNc1ncnc2c1cnn2-c1ccc(C)c(C)c1,"3.98 µM [rising, full curve, poor fit]","0.355 µM [rising, full curve, poor fit]"
C(=N\n1cnnc1)/c1ccc(-c2ccccc2)cc1,"12.6 µM [falling, partial curve]","11.2 µM [falling, partial curve]"
